# Measurements from the supplement of paper PMC8104966.
# Structures can show the parent of a compound that is named as a salt. The list shows a part of the results. This data set is noisy: repeats of one test often differ as much as different tests do.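 U2OS cells expressing ACE2 were combined with U2OS cells expressing full-length spike, and imaging quantified fusion as the fraction of nuclei displaying both cell types' fluorescent markers. Non-toxic compounds with a fusion z-score under -3, i.e., over three standard deviations below the plate's DMSO wells, are called inhibitory hits.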
# Tested on: U2OS ACE2 x SARS-CoV-2 spike co-culture
# Experiment: cell-cell fusion (fraction fused) z-score vs plate DMSO control; higher = more fusion
# Conditions: 30 µM; 5 h; toxicity class: non-toxic, passed QC
row,SMILES,cell-cell fusion (z-score)
1,Oc1ccc(OCc2ccccc2)cc1,inactive: 2.02
2,CN(Cc1cnc2nc(N)nc(N)c2n1)c1ccc(C(=O)N[C@@H](CCC(=O)O)C(=O)O)cc1 [Methotrexate hydrate],inactive: 2.66
3,C[N+]12CCC(CC1)C(OC(=O)C(O)(c1ccccc1)c1ccccc1)C2.[Br-] (stereo not drawn),inactive: 0.207
4,O=C(O)c1ccc2c(c1)nc(Nc1cccc(Cl)c1)c1ccncc12 [cx-4945 (Silmitasertib)],inactive: 0.656
5,CCN1/C(=C/C(C)=O)Sc2ccc(OC)cc21,inactive: 2
6,CCCCCCCCCCCCCCCCOP(=O)([O-])OCC[N+](C)(C)C [Miltefosine],inactive: -1.04
7,Cl.NCCCCCC(=O)O,inactive: 0.476
8,C#CCN(C)Cc1ccccc1.Cl [Pargyline hydrochloride],inactive: 2.57
9,CC1(C)C(C=C(Cl)Cl)C1C(=O)OC(C#N)c1cccc(Oc2ccccc2)c1 (stereo not drawn),inactive: 1.1
10,C[N+](C)(CCOc1ccccc1)Cc1ccccc1.O=C([O-])c1cc2ccccc2cc1O,inactive: 1.8
11,CCCCC[C@H](O)/C=C/[C@H]1[C@H](O)CC(=O)[C@@H]1CCCCCCC(=O)O [Alprostadil],inactive: 2.4
12,O=S(=O)(O)O.Oc1cccc2cccnc12,inactive: 0.971
13,CC(C)CN(C[C@@H](O)[C@H](Cc1ccccc1)NC(=O)O[C@H]1CO[C@H]2OCC[C@H]21)S(=O)(=O)c1ccc(N)cc1 [Darunavir],inactive: 1.65
14,Cn1cnc([N+](=O)[O-])c1Sc1ncnc2nc[nH]c12 [Azathioprine],inactive: 1.61
15,O=C(/C=C/c1ccc(O)cc1)c1ccccc1,inactive: 0.343
16,N[C@@H](C(=O)N[C@@H]1C(=O)N2C(C(=O)O)=C(Cl)CS[C@H]12)c1ccccc1,inactive: 2.75
17,S=c1[nH]cnc2nc[nH]c12,inactive: 0.536
18,CN1CCN(C(c2ccccc2)c2ccccc2)CC1,inactive: 2.09
19,O=C(N/N=C/c1coc2ccccc2c1=O)c1cccnc1 [STAT5 Inhibitor],inactive: 1.64
20,Cl.NO [Hydroxylamine hydrochloride],inactive: -2.03
21,COC(=O)CCC(C)C1CCC2C3CC[C@@H]4C[C@H](O)CC[C@]4(C)C3C[C@H](O)[C@]12C (stereo partly drawn),inactive: 1.1
22,NS(=O)(=O)c1cc2c(cc1Cl)NCNS2(=O)=O [Hydrochlorothiazide],inactive: 3.36
23,N[C@@H](Cc1c[nH]c2ccc(O)cc12)C(=O)O [5-Hydroxy-L-tryptophan],inactive: 1.21
24,Cl.Cl.N=C(N)N,inactive: 1.5
25,COc1cc2c(cc1OC)-c1cc3ccc(OC)c(OC)c3c[n+]1CC2.O,inactive: 3.96
26,COC(=O)C1=C(C)NC(C)=C(C(=O)OCCN2CCN(C(c3ccccc3)c3ccccc3)CC2)C1c1cccc([N+](=O)[O-])c1 (stereo not drawn),inactive: 1.09

row,SMILES,cell-cell fusion (z-score)
1,COc1ccc(-c2coc3c4c(c(CC=C(C)C)c(O)c3c2=O)OC(C)(C)C=C4)cc1,inactive: 1.95
2,Nc1ccc(N2C(=O)c3ccccc3C2=O)c(Cl)c1 [N-(4-Amino-2-chlorophenyl)phthalimide],inactive: 2.33
3,CN(C)c1nc(N(C)C)nc(N(C)C)n1 [Altretamine (Hexalen)],inactive: 2.32
4,CC[C@@]1(O)C(=O)OCc2c1cc1n(c2=O)Cc2cc3c(CN(C)C)c(O)ccc3nc2-1 [Topotecan],inactive: 3.89
5,Cl.N[C@@H](Cc1cnc[nH]1)C(=O)O.O [L-Histidine monohydrochloride monohydrat],inactive: 3.12
6,CCn1cc(C(=O)O)c(=O)c2cc(F)c(N3CCNC(C)C3)c(F)c21.Cl (stereo not drawn) [Lomefloxacin hydrochloride],inactive: 2.34
7,CN(C)CCN(Cc1ccccc1)c1ccccn1.Cl [Tripelennamine hydrochloride],inactive: 2.29
8,"Nc1ccc(S(=O)(=O)c2ccc(N)cc2)cc1 [4,4'-Diaminodiphenylsulfone]",inactive: 3.21
9,CCC1(CC)C(=O)NC(=O)NC1=O,inactive: 2.26
10,Nc1nc2ccc(Cl)cc2n2c(-c3ccccc3)nnc12,inactive: 2.08
11,C(=C\c1ccccc1)/CN1CCN(C(c2ccccc2)c2ccccc2)CC1 [Cinnarizine],inactive: 0.39
12,Brc1cc2c(cc1[C@H]1Nc3ccccc3[C@H]3C=CC[C@H]31)OCO2,inactive: 3.76
13,CC(C)(C(=O)O)c1ccc(C(O)CCCN2CCC(C(O)(c3ccccc3)c3ccccc3)CC2)cc1 (stereo not drawn) [Fexofenadine hydrochloride],inactive: 1.83
14,CCN(CC)CCNC(=O)c1cc(S(C)(=O)=O)ccc1OC.Cl,inactive: 2.6
15,NC(=O)Nc1sc(-c2ccc(F)cc2)cc1C(N)=O,inactive: 1.54
16,CN(C)CCC(c1ccccc1)c1ccccn1.O=C(O)/C=C\C(=O)O (stereo not drawn),inactive: 2.07
17,CC(=O)NO [Acetohydroxamic acid],inactive: 3.15
18,CC(=O)NO,inactive: -0.357
19,CN(C)C1CCN(C(=O)c2ccc(NC(=O)Nc3ccc(-c4nc(N5CCOCC5)nc(N5CCOCC5)n4)cc3)cc2)CC1,inactive: 1.31
20,CNc1cc(NS(=O)(=O)c2ccc(N)cc2)nc(NC)n1.Cl.Cl [Ro 04-6790 dihydrochloride],inactive: 2.72
21,CCCCCCCCCCCCCCCCCCOC[C@H](COP(=O)([O-])OCC[N+](C)(C)C)OC,inactive: -2.62
22,O.O.O=C(Nc1ccc2c(c1)CCN(Cc1ncn[nH]1)C2)c1ccccc1-c1ccc(C(F)(F)F)cc1,inactive: 3.33
23,Nc1ccc(S(=O)(=O)c2ccc(N)cc2)cc1,inactive: 0.435
24,O=[N+]([O-])c1ccc2c(c1)S(=O)(=O)C=C2 [Stattic],inactive: 0.0921
25,CC(C)NCC(O)COc1ccc(CC(N)=O)cc1 (racemic) [(±)-Atenolol],inactive: 2.68
26,Cl.Oc1noc2c1CCNC2 [THIP hydrochloride],inactive: 1.22

# Rewritten as tab-separated lines: entries from further up.
row	SMILES	cell-cell fusion (z-score)
9	CCC1(CC)C(=O)NC(=O)NC1=O	inactive: 2.26
13	CC(C)(C(=O)O)c1ccc(C(O)CCCN2CCC(C(O)(c3ccccc3)c3ccccc3)CC2)cc1 (stereo not drawn) [Fexofenadine hydrochloride]	inactive: 1.83
21	CCCCCCCCCCCCCCCCCCOC[C@H](COP(=O)([O-])OCC[N+](C)(C)C)OC	inactive: -2.62
24	O=[N+]([O-])c1ccc2c(c1)S(=O)(=O)C=C2 [Stattic]	inactive: 0.0921

# Further records.

row,SMILES,cell-cell fusion (z-score)
1,Cl.Oc1noc2c1CCNC2,inactive: -0.346
2,CO[C@@]1(NC(=O)C2SC(=C(C(N)=O)C(=O)O)S2)C(=O)N2C(C(=O)O)=C(CSc3nnnn3C)CSC21 (stereo partly drawn),inactive: 1.27
3,COc1ccc(-c2cc(C(F)F)nn2-c2ccc(S(N)(=O)=O)cc2)cc1F,inactive: -0.0528
4,CCn1cc(C(=O)O)c(=O)c2cc(F)c(N3CCNCC3)nc21 [Enoxacin],inactive: 1.97
5,Cl.O=C(O)c1cn(-c2ccc(F)cc2)c2cc(N3CCNCC3)c(F)cc2c1=O,inactive: 2.78
6,O=C(O)/C=C/c1ccc(O)c(O)c1 [Caffeic Acid],inactive: 0.806
7,O=C(O)/C=C/c1ccc(O)c(O)c1,inactive: 0.624
8,COC(=O)[C@@H](N)CCCNC(=N)N[N+](=O)[O-].Cl [NG-Nitro-L-arginine methyl ester hydrochloride],inactive: 2.28
9,COc1cc2ccc(=O)oc2c(OC)c1OC,inactive: 1.51
10,CCN1CCN(Cc2ccc(Nc3ncc(F)c(-c4cc(F)c5nc(C)n(C(C)C)c5c4)n3)nc2)CC1.CS(=O)(=O)O,inactive: 3.28
11,CCCCN(CCCC)CC(O)c1cc(Cl)cc2c1-c1ccc(Cl)cc1/C2=C/c1ccc(Cl)cc1 (stereo not drawn) [Lumefantrine],inactive: -0.914
12,CCOC(=O)C1=C(C)NC(C)=C(C(=O)OC)C1c1cccc([N+](=O)[O-])c1 (stereo not drawn),inactive: 0.63
13,CCCCOCCOCCOCc1cc2c(cc1CCC)OCO2 [Piperonyl butoxide],inactive: 3.42
14,NC(=O)c1ncn([C@@H]2O[C@H](CO)[C@@H](O)[C@H]2O)c1O,inactive: 2.25
15,NC(=O)c1ncn([C@@H]2O[C@H](CO)[C@@H](O)[C@H]2O)c1O [Mizoribine],inactive: 2.65
16,COc1ccc(-c2cc(=O)c3c(O)cc(OC)c(OC)c3o2)c(OC)c1,inactive: 1.21
17,CC1=CC(=O)C(C(C)C)=CC1=O,inactive: 2.08
18,CC(C)C1=CC2=CCC3[C@](C)(CCC[C@]3(C)C(=O)O)C2CC1 (stereo partly drawn),inactive: 2.39
19,CCOC(=O)C1=C[C@@]2(CC)CCCN3CCc4c(n1c1ccccc41)[C@@H]32 [Vinpocetine (Cavinton)],inactive: 2.78
20,CCC1(c2ccccc2)NC(=O)N(C)C1=O (stereo not drawn),inactive: 3.38
21,NCCCCCC(=O)O [6-Aminohexanoic acid],inactive: 0.777
22,CNC[C@@H](O)c1ccc(O)c(O)c1.O=C(O)C(O)C(O)C(=O)O,inactive: -2.12
23,CN(C)CCN(Cc1cccs1)c1ccccn1.Cl [Methapyrilene hydrochloride],inactive: 2.87
24,O.O.O=C([O-])CCNC(=O)c1ccc(/N=N/c2ccc(O)c(C(=O)[O-])c2)cc1.[Na+].[Na+] [Balsalazide disodium salt dihydrate],inactive: 0.765
25,O=C(O)CCCc1ccccc1,inactive: 3.54
26,CC#CCn1c(N2CCC[C@@H](N)C2)nc2c1c(=O)n(Cc1nc(C)c3ccccc3n1)c(=O)n2C [Linagliptin],inactive: 2.31
